Source: PubChem BioAssay AID1159578 (Peter MacCallum Cancer Centre, 2015)

- Screen: 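Genome-wide hunt for genes controlling movement of lymphatic endothelial cells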 (primary screen)
- Cell system: human lymphatic endothelial cells
- Reagents: siRNA pool against human genes, 40 nM
- Timing: 48 h after transfection
- Measured: 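Cells stained with dye and imaged after a scratch; covered wound area and nuclei counted, duplicates averaged, migration set against mock wells and turned into a robust z-score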
- Direction: migration robust z-score: higher = faster migration into the scratch; migration relative to mock: higher = more scratch area covered than mock; nuclei per well: higher = more cells in the well
- Call rule: 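Pools averaging fewer than 3300 nuclei are never called; remaining pools count as changed when migration robust z lies outside -2 to 2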
- Calls: active = migration changed; inactive = no migration change, or too few cells
In all, the deposit lists about 18,000 reagents; below is an unselected part. Of all reagents, about 1,030 (5.7%) are marked active. 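Inactive calls also include pools with fewer than 3300 nuclei, whose migration was not assessed.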 The raw values are shown without normalisation.

The first 2 entries, to show the layout:
gene knocked down	migration robust z-score	migration class with cell-count check	migration relative to mock	nuclei per well, duplicate mean	Call
NLRP2	1.95	migration z between -2 and 2; enough cells	1.18	5119	inactive
NEUROG1	-3.02	under 3300 nuclei; migration not judged	0.1	3006	inactive

Results, from the start:
gene knocked down	migration robust z-score	migration class with cell-count check	migration relative to mock	nuclei per well, duplicate mean	Call
NLRP2	1.95	migration z between -2 and 2; enough cells	1.18	5119	inactive
NEUROG1	-3.02	under 3300 nuclei; migration not judged	0.1	3006	inactive
AKR1C6P	-2.52	migration z below -2; enough cells	0.32	3568	active
GNB4	-0.02	migration z between -2 and 2; enough cells	0.8	5788	inactive
UCHL1	-0.13	migration z between -2 and 2; enough cells	0.78	5288	inactive
GOPC	1.35	migration z between -2 and 2; enough cells	1.06	6427	inactive
HAL	-0.2	migration z between -2 and 2; enough cells	0.76	5424	inactive
NINL	1.19	migration z between -2 and 2; enough cells	1.19	5956	inactive
ACER2	-1.15	migration z between -2 and 2; enough cells	0.59	4953	inactive
S100A6	-1.46	migration z between -2 and 2; enough cells	0.52	3756	inactive
IFT52	-1.26	migration z between -2 and 2; enough cells	0.56	5202	inactive
SP6	-0.83	migration z between -2 and 2; enough cells	0.67	5189	inactive
TG	0.62	migration z between -2 and 2; enough cells	0.92	6400	inactive
DNAJA2	1.35	migration z between -2 and 2; enough cells	1.06	5916	inactive
PDE6C	0.8	migration z between -2 and 2; enough cells	0.96	5850	inactive
FOXO1	-0.31	migration z between -2 and 2; enough cells	0.74	6816	inactive
NDUFB9	-0.16	migration z between -2 and 2; enough cells	0.77	5730	inactive
LDB1	0.08	migration z between -2 and 2; enough cells	0.82	6748	inactive
DYNC2I2	-1.06	migration z between -2 and 2; enough cells	0.6	5364	inactive
ARHGEF11	-0.55	migration z between -2 and 2; enough cells	0.74	5648	inactive
GPR6	0.7	migration z between -2 and 2; enough cells	0.94	5956	inactive
NCDN	2.1	migration z above 2; enough cells	1.43	6409	active
CLHC1	0.93	migration z between -2 and 2; enough cells	1.12	5680	inactive
